No constants are given. Whether binding was seen depends on the method and setting. Binding seen in cells or lysates may run through a third protein. Binding calls can cover weak binding; strength is not graded here. Sequences can lack the tags named with a protein.
T1: YFP-D6PK (D6 PROTEIN KINASE) (Arabidopsis thaliana) (UniProt Q9FG74)
T1 sequence: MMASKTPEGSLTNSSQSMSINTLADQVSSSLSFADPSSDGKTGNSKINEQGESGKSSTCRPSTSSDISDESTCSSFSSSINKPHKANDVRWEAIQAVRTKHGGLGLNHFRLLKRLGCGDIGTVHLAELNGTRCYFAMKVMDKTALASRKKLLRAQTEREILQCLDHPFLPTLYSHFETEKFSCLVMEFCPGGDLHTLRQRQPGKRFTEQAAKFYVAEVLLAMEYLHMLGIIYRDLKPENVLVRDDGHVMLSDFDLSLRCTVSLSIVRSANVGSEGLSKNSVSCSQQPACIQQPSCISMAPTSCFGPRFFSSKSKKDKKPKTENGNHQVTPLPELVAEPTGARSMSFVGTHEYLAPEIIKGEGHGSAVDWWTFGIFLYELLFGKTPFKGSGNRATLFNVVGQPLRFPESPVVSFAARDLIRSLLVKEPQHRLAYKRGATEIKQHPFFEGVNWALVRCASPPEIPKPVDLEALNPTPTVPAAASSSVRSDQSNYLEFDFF

Chains of the proteins cited; added tags and fusions are not shown. Lines headed by an entry give the natural chain unless they say otherwise; changes in a name come on top.
UniProt Q4V3C8: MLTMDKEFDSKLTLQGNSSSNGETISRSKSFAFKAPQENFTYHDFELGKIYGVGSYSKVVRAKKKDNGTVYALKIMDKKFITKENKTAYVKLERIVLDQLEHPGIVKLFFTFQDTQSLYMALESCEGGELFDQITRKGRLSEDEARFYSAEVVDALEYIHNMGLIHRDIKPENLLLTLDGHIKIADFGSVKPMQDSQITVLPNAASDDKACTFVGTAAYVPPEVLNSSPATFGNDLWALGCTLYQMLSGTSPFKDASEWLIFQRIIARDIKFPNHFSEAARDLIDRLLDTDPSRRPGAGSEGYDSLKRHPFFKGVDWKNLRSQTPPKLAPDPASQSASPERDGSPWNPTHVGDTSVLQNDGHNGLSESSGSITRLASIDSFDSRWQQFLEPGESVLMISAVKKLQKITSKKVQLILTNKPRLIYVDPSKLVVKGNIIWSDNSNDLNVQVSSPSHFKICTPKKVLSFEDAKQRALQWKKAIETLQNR


Columns and labels:
[1] = target: T1, YFP-D6PK (D6 PROTEIN KINASE) (Arabidopsis thaliana); assay: co-IP
[2] = target: GST-PDK1.2 (Arabidopsis thaliana) (UniProt Q4V3C8); assay: pull-down

binding [1] | binding [2] | Molecule
binds |  | mCherry-PDK1.2 (3'-Phosphoinositide-Dependent Protein Kinase1.2) (from UniProt Q4V3C8) (enzyme)
 | binds | His-D6PK (enzyme, UniProt Q9FG74 1-498) MMASKTPEGSLTNSSQSMSINTLADQVSSSLSFADPSSDGKTGNSKINEQGESGKSSTCRPSTSSDISDESTCSSFSSSINKPHKANDVRWEAIQAVRTKHGGLGLNHFRLLKRLGCGDIGTVHLAELNGTRCYFAMKVMDKTALASRKKLLRAQTEREILQCLDHPFLPTLYSHFETEKFSCLVMEFCPGGDLHTLRQRQPGKRFTEQAAKFYVAEVLLAMEYLHMLGIIYRDLKPENVLVRDDGHVMLSDFDLSLRCTVSLSIVRSANVGSEGLSKNSVSCSQQPACIQQPSCISMAPTSCFGPRFFSSKSKKDKKPKTENGNHQVTPLPELVAEPTGARSMSFVGTHEYLAPEIIKGEGHGSAVDWWTFGIFLYELLFGKTPFKGSGNRATLFNVVGQPLRFPESPVVSFAARDLIRSLLVKEPQHRLAYKRGATEIKQHPFFEGVNWALVRCASPPEIPKPVDLEALNPTPTVPAAASSSVRSDQSNYLEFDFF

Source: article doi:10.1101/755504 (bioRxiv, 2019)
